Structures can show the parent of a compound that is named as a salt. The name of at least one read-out is uncertain.
Test: Pharmacokinetics assay in rats (intragastric and tail vein administration, plasma LC/MS/MS)
Format: in vivo
Details: SD rats; conclusion in words
Protocol: The rats were used as experimental animals. The compound of formula (I) and other salts thereof were administrated intragastrically, the maleate of the compound of formula (I) was injected into the tail vein to determine the drug concentration in plasma at different time points by LC/MS/MS method. The pharmacokinetic behavior, characteristics and the oral absolute bioavailability of the compounds in the present invention were studied and evaluated in rats.
The compound of formula (I), compounds of Example 1˜5.
28 healthy adult SD rats, male and female in half, were divided into 7 groups (4 rats in each group) and purchased from SINO-BRITSH SIPPR/BK LAB. ANIMAL LTD., CO, License number: SCXK (Shanghai) 2008-0016. […]
28 healthy adult SD rats, male and female in half, were divided into 7 groups (4 rats in each group). After an overnight fast, the compound of Example 1, at a dose of 10 mg/kg (calculated by the base part), at a volume of 10 mL/kg, was administered intragastrically or injected into the tail vein. […]
25 μL of rat plasmas taken at various time points after administration were mixed with 20 μL of internal standard solution and […] of methanol for 2 minutes by using a vortexer and the mixture was centrifuged for 10 minutes at 16,000 rpm. 10 pt of the supernatant was analyzed by LC-MS/MS. […]

Which “pharmacokinetic characteristics and bioavailability compared with free base and other salts” value does the source give for `Cc1c(/C=C2\C(=O)Nc3ccc(F)cc32)[nH]c2c1C(=O)N(C[C@H](O)CN1CCOCC1)CCC2` [Example 1, (R,Z)-2-(5-fluoro-2-oxo-1,2-dihydro-indol-3-ylidenemethyl)-5-(2-hydroxy-3-morpholin-4-yl-propyl)-3-methyl-5,6,7,8-tetrahydro-1H-pyrrolo[3,2-c]azepin-4-one maleate] here?
The value was “significant improvement”.

Reference: patent publication US20120295887A1, “PHARMACEUTICALLY ACCEPTABLE SALTS OF PYRROLO-NITROGENOUS HETEROCYCLIC DERIVATIVES, PREPARATION METHOD AND MEDICAL USE THEREOF” (SHANGHAI HENGRUI PHARMACEUTICAL CO., LTD., priority 2010, published 2012)
